From the supplement of paper PMC6078165

Tested on: HCC1143
Assay: relative JC-1 red fluorescence (viability) vs pre-drug, coculture with fibroblast (fraction); higher = more viable cancer cells
Procedure: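 JC-1 labelled TNBC cells cocultured 1:1 (1,500 cells each) with CellTrace Violet stained primary or stromal fibroblasts in 384-well plates in FluoroBrite medium, treated with one of 42 anticancer drugs at 0.1, 1, 10 or 100 uM. JC-1 red fluorescence (mitochondrial integrity in cancer cells only) was read by plate reader every 8 h for 72 h. Values are normalised to each well's pre-drug value. The stock of one drug was tenfold lower, so its dose labels may be too high.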

O=c1[nH]cc(F)c(=O)[nH]1 [Fluorouracil]
relative JC-1 red fluorescence
Conditions	8 h	16 h	24 h	32 h	40 h	48 h	56 h	64 h	72 h
0.1 µM, coculture fibroblast: C12385	0.8552	0.789	0.694	0.626	0.545	0.507	0.471	0.425	0.403
0.1 µM, coculture fibroblast: H6013	0.788	0.663	0.64	0.634	0.556	0.55	0.515	0.499	0.457
0.1 µM, coculture fibroblast: H6019	0.817	0.709	0.666	0.601	0.554	0.525	0.468	0.421	0.383
0.1 µM, coculture fibroblast: H6076	0.805	0.754	0.717	0.665	0.618	0.604	0.583	0.555	0.566
0.1 µM, coculture fibroblast: H6231	0.804	0.833	0.718	0.5588	0.588	0.544	0.508	0.4701	0.4318
0.1 µM, coculture fibroblast: HADF	0.769	0.677	0.644	0.671	0.588	0.574	0.537	0.51	0.494
0.1 µM, coculture fibroblast: HCFa	0.764	0.632	0.597	0.578	0.481	0.455	0.408	0.373	0.356
0.1 µM, coculture fibroblast: HCPF	0.803	0.806	0.7269	0.6298	0.632	0.6	0.56	0.52	0.5
0.1 µM, coculture fibroblast: HHSteC	0.8096	0.6866	0.6393	0.605	0.519	0.4934	0.4483	0.415	0.366
0.1 µM, coculture fibroblast: HMF	0.7908	0.851	0.754	0.624	0.643	0.595	0.544	0.493	0.451
0.1 µM, coculture fibroblast: HPFa	0.92	0.829	0.774	0.696	0.616	0.576	0.524	0.472	0.434
0.1 µM, coculture fibroblast: HUF	0.8836	0.752	0.697	0.618	0.567	0.532	0.488	0.446	0.416
0.1 µM, coculture fibroblast: Hs5	0.858	0.893	0.81691	0.7552	0.689	0.639	0.609	0.571	0.565
0.1 µM, coculture fibroblast: Hs27A	0.72	0.646	0.606	0.617	0.504	0.495	0.439	0.402	0.334
0.1 µM, coculture fibroblast: Hs343T	0.816	0.812	0.745	0.685	0.651	0.624	0.579	0.558	0.54
0.1 µM, coculture fibroblast: WS1	0.808	0.687	0.633	0.564	0.507	0.471	0.4231	0.387	0.364
1 µM, coculture fibroblast: C12385	0.844	0.747	0.734	0.677	0.611	0.569	0.529	0.487	0.467
1 µM, coculture fibroblast: H6013	0.758	0.736	0.72	0.724	0.681	0.676	0.648	0.645	0.597
1 µM, coculture fibroblast: H6019	0.786	0.686	0.657	0.594	0.557	0.54	0.496	0.461	0.429
1 µM, coculture fibroblast: H6076	0.807	0.737	0.712	0.688	0.631	0.616	0.598	0.574	0.587
1 µM, coculture fibroblast: H6231	0.812	0.7912	0.696	0.598	0.581	0.549	0.508	0.472	0.451
1 µM, coculture fibroblast: HADF	0.756	0.671	0.64	0.642	0.569	0.552	0.518	0.493	0.452
1 µM, coculture fibroblast: HCFa	0.764	0.697	0.653	0.628	0.553	0.53	0.488	0.454	0.408
1 µM, coculture fibroblast: HCPF	0.814	0.788	0.741	0.652	0.658	0.618	0.582	0.551	0.535
1 µM, coculture fibroblast: HHSteC	0.858	0.765	0.719	0.694	0.615	0.587	0.532	0.502	0.443
1 µM, coculture fibroblast: HMF	0.7844	0.792	0.718	0.615	0.617	0.576	0.523	0.487	0.464
1 µM, coculture fibroblast: HPFa	0.9163	0.811	0.7556	0.6704	0.598	0.556	0.493	0.452	0.41
1 µM, coculture fibroblast: HUF	0.8912	0.807	0.763	0.692	0.649	0.625	0.578	0.539	0.507
1 µM, coculture fibroblast: Hs5	0.8498	0.877	0.822	0.7544	0.711	0.679	0.649	0.628	0.608
1 µM, coculture fibroblast: Hs27A	0.727	0.634	0.605	0.612	0.51	0.516	0.49	0.48	0.433
1 µM, coculture fibroblast: Hs343T	0.79	0.7686	0.694	0.608	0.576	0.53	0.482	0.455	0.425
1 µM, coculture fibroblast: WS1	0.814	0.7096	0.674	0.601	0.559	0.522	0.473	0.442	0.415
10 µM, coculture fibroblast: C12385	0.856	0.7925	0.709	0.653	0.598	0.569	0.534	0.49	0.472
10 µM, coculture fibroblast: H6013	0.786	0.693	0.665	0.639	0.577	0.567	0.531	0.512	0.471
10 µM, coculture fibroblast: H6019	0.822	0.746	0.709	0.655	0.625	0.608	0.574	0.5442	0.5248
10 µM, coculture fibroblast: H6076	0.77	0.7631	0.707	0.628	0.609	0.588	0.552	0.519	0.521
10 µM, coculture fibroblast: H6231	0.815	0.802	0.717	0.62	0.6235	0.593	0.56	0.525	0.501
10 µM, coculture fibroblast: HADF	0.768	0.72	0.705	0.72	0.649	0.638	0.61	0.587	0.584
10 µM, coculture fibroblast: HCFa	0.816	0.71	0.67	0.653	0.563	0.53	0.486	0.456	0.428
10 µM, coculture fibroblast: HCPF	0.811	0.809	0.734	0.652	0.651	0.619	0.587	0.552	0.542
10 µM, coculture fibroblast: HHSteC	0.828	0.718	0.683	0.653	0.584	0.555	0.504	0.478	0.436
10 µM, coculture fibroblast: HMF	0.761	0.7457	0.6802	0.6091	0.585	0.554	0.506	0.473	0.441
10 µM, coculture fibroblast: HPFa	0.928	0.866	0.787	0.711	0.646	0.609	0.562	0.522	0.48
10 µM, coculture fibroblast: HUF	0.851	0.741	0.654	0.568	0.507	0.481	0.437	0.405	0.373
10 µM, coculture fibroblast: Hs5	0.86	0.8583	0.816	0.788	0.727	0.697	0.67	0.637	0.636
10 µM, coculture fibroblast: Hs27A	0.747	0.681	0.678	0.708	0.632	0.641	0.617	0.612	0.604
10 µM, coculture fibroblast: Hs343T	0.7931	0.839	0.7571	0.644	0.6545	0.61	0.554	0.517	0.474
10 µM, coculture fibroblast: WS1	0.848	0.758	0.691	0.618	0.572	0.547	0.516	0.479	0.457
100 µM, coculture fibroblast: C12385	0.855	0.788	0.767	0.722	0.672	0.645	0.616	0.587	0.576
100 µM, coculture fibroblast: H6013	0.707	0.62	0.559	0.541	0.469	0.446	0.415	0.396	0.375
100 µM, coculture fibroblast: H6019	0.803	0.739	0.702	0.645	0.607	0.591	0.555	0.528	0.498
100 µM, coculture fibroblast: H6076	0.797	0.766	0.748	0.728	0.671	0.671	0.64	0.627	0.644
100 µM, coculture fibroblast: H6231	0.774	0.735	0.67	0.604	0.582	0.556	0.521	0.496	0.49
100 µM, coculture fibroblast: HADF	0.769	0.684	0.648	0.633	0.559	0.541	0.514	0.489	0.452
100 µM, coculture fibroblast: HCFa	0.804	0.703	0.643	0.623	0.546	0.515	0.471	0.436	0.413
100 µM, coculture fibroblast: HCPF	0.8161	0.811	0.766	0.67	0.692	0.656	0.617	0.588	0.573
100 µM, coculture fibroblast: HHSteC	0.775	0.702	0.652	0.608	0.54	0.512	0.469	0.438	0.39
100 µM, coculture fibroblast: HMF	0.765	0.775	0.706	0.63	0.61	0.578	0.532	0.505	0.487
100 µM, coculture fibroblast: HPFa	0.9074	0.81	0.7841	0.71	0.65	0.622	0.579	0.55	0.521
100 µM, coculture fibroblast: HUF	0.829	0.717	0.672	0.603	0.565	0.546	0.505	0.477	0.456
100 µM, coculture fibroblast: Hs5	0.8471	0.805	0.782	0.765	0.686	0.66	0.644	0.636	0.638
100 µM, coculture fibroblast: Hs27A	0.737	0.653	0.611	0.628	0.517	0.509	0.476	0.465	0.46
100 µM, coculture fibroblast: Hs343T	0.797	0.771	0.718	0.684	0.649	0.624	0.584	0.567	0.548
100 µM, coculture fibroblast: WS1	0.805	0.7437	0.7124	0.6496	0.6115	0.584	0.548	0.53	0.505

Values are relative to the signal before dosing, not to a vehicle control; the signal also falls without drug.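 Fibroblast labels denote human fibroblasts, mainly primary ones from uterus (C12385, HUF), lung (H6013), bone (Hs27A), adrenal (HADF) and skin (WS1), plus mammary HMF and breast cancer-associated Hs343T. Cancer cells are basal-like or mesenchymal-like triple-negative breast cancer lines. A hit is a response shift exceeding 3x replicate standard deviation. The tissue of the other fibroblasts is not given here.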
